Results as given in publication PMC3928049.
Results are given in words; binding and its absence hold for the method and conditions named. Binding seen in cells or lysates may run through a third protein. Binding can be weak; no strength is given. Sequences can lack the tags named with a protein.

Columns and labels:
Experiment in all cases: pull-down; 6 ug resin-bound MBP fusion protein added to 250 ug total protein extract of DEX-induced transgenic Arabidopsis seedlings, 1 h at 4 C with rotation; 50 mM Tris-HCl pH 7.4, 150 mM NaCl, 10% glycerol, 0.2% NP-40, MG132 and protease inhibitors; anti-HA immunoblot; only the target purified
MBP-JAZ10 (Arabidopsis) = target: T1, MBP-JAZ10 (Arabidopsis) (UniProt Q93ZM9)
T1 sequence: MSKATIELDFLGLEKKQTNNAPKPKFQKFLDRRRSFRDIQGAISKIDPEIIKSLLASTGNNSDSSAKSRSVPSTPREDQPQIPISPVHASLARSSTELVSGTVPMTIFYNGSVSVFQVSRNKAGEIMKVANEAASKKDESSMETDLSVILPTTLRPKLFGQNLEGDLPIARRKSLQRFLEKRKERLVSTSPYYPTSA

MBP-JAZ11 (Arabidopsis) = target: T2, MBP-JAZ11 (Arabidopsis) (UniProt Q9M246)
T2 sequence: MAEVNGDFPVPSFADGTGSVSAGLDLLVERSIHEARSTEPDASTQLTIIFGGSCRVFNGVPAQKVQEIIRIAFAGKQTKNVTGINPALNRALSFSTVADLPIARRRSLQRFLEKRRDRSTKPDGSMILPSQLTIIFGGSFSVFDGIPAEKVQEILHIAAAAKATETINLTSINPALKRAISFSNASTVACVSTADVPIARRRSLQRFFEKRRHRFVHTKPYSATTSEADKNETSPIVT

MBP-JAZ3 (Arabidopsis) = target: T3, MBP-JAZ3 (Arabidopsis) (UniProt Q9LVI4)
T3 sequence: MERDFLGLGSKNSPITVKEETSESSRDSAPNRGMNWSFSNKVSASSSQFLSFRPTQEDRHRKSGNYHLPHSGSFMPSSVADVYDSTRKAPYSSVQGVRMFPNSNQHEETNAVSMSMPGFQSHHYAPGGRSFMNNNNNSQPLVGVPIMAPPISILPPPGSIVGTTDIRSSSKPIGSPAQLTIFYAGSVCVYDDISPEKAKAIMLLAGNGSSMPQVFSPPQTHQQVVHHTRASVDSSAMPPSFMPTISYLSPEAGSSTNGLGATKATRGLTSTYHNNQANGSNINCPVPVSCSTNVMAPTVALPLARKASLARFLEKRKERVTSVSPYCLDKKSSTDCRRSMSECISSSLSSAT

MBP-JAZ4 (Arabidopsis) = target: T4, MBP-JAZ4 (Arabidopsis) (UniProt Q58G47)
T4 sequence: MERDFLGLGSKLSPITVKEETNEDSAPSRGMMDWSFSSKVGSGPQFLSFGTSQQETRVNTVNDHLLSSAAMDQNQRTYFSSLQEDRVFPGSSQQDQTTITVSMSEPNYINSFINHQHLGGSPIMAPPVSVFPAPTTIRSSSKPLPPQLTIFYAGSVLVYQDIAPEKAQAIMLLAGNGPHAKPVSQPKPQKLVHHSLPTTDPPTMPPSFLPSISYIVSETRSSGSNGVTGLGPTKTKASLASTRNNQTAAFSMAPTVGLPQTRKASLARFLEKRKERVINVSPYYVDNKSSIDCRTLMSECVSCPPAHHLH

MBP-JAZ7 (Arabidopsis) = target: T5, MBP-JAZ7 (Arabidopsis) (UniProt O64687)
T5 sequence: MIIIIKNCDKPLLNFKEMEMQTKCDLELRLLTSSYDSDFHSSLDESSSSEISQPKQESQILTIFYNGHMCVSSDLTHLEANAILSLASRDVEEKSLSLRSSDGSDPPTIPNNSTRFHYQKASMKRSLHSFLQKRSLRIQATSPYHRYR

MBP-JAZ8 (Arabidopsis) = target: T6, MBP-JAZ8 (Arabidopsis) (UniProt Q8LBM2)
T6 sequence: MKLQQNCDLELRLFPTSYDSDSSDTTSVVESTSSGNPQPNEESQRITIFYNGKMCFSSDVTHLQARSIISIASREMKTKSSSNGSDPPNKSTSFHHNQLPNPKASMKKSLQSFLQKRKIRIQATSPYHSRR

MBP-JAZ9 (Arabidopsis) = target: T7, MBP-JAZ9 (Arabidopsis) (UniProt Q8W4J8)
T7 sequence: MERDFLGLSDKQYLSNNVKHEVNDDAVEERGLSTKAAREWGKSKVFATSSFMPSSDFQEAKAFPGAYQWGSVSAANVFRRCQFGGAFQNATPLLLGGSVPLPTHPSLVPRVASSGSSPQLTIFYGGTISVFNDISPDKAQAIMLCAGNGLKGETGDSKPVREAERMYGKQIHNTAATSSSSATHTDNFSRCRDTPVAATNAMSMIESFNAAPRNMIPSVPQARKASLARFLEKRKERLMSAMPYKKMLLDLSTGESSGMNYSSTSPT

Measured: binding

HopX1-HA (effector HopX1 from Pseudomonas syringae pv. tabaci 11528)
binds: MBP-JAZ10 (Arabidopsis) | MBP-JAZ11 (Arabidopsis) | MBP-JAZ3 (Arabidopsis) | MBP-JAZ4 (Arabidopsis) | MBP-JAZ7 (Arabidopsis) | MBP-JAZ8 (Arabidopsis) | MBP-JAZ9 (Arabidopsis)
